Experimental data taken from PMC8636641.
Changes are numbered by the printed parent chain. No constants are given. Whether binding was seen depends on the method and setting. In cells and extracts the contact can be indirect. These calls come from enrichment with a bait or labelling near it, and not all partners need be listed. Tags and fused reporters may be left off the sequences shown. Values belong to the molecule of their own block, whether it stands above or below them.

Protein sequences, listed by entry. Tags and fused reporters are not part of them.
UniProt Q9Y294: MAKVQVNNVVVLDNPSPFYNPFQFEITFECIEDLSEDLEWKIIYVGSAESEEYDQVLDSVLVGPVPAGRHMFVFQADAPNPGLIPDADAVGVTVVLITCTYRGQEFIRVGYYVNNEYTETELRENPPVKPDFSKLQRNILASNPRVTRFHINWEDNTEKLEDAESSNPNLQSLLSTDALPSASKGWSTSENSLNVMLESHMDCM
UniProt Q9NYF8: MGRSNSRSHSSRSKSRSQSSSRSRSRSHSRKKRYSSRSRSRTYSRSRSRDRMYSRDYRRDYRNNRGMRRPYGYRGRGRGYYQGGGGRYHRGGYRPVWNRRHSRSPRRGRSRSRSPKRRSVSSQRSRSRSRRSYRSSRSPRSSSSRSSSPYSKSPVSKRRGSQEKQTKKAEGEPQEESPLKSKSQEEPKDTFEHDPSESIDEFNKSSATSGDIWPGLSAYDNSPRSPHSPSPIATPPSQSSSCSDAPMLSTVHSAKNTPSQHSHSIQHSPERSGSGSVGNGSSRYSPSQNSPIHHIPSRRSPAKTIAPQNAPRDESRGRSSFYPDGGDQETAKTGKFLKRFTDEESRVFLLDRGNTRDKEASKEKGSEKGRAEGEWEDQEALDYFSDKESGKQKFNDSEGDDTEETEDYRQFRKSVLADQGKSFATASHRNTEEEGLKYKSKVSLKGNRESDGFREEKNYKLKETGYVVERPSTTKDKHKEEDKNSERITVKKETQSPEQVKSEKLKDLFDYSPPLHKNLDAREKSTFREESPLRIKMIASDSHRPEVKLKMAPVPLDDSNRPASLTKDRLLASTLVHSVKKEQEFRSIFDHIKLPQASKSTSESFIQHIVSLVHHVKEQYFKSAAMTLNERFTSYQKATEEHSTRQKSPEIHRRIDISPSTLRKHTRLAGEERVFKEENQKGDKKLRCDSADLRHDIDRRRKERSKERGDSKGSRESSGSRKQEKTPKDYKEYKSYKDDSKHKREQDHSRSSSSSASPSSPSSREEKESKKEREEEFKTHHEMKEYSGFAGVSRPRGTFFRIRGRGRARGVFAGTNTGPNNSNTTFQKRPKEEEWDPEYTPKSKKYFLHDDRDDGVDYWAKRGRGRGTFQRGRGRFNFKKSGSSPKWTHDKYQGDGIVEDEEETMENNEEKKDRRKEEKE
UniProt Q9UPU5: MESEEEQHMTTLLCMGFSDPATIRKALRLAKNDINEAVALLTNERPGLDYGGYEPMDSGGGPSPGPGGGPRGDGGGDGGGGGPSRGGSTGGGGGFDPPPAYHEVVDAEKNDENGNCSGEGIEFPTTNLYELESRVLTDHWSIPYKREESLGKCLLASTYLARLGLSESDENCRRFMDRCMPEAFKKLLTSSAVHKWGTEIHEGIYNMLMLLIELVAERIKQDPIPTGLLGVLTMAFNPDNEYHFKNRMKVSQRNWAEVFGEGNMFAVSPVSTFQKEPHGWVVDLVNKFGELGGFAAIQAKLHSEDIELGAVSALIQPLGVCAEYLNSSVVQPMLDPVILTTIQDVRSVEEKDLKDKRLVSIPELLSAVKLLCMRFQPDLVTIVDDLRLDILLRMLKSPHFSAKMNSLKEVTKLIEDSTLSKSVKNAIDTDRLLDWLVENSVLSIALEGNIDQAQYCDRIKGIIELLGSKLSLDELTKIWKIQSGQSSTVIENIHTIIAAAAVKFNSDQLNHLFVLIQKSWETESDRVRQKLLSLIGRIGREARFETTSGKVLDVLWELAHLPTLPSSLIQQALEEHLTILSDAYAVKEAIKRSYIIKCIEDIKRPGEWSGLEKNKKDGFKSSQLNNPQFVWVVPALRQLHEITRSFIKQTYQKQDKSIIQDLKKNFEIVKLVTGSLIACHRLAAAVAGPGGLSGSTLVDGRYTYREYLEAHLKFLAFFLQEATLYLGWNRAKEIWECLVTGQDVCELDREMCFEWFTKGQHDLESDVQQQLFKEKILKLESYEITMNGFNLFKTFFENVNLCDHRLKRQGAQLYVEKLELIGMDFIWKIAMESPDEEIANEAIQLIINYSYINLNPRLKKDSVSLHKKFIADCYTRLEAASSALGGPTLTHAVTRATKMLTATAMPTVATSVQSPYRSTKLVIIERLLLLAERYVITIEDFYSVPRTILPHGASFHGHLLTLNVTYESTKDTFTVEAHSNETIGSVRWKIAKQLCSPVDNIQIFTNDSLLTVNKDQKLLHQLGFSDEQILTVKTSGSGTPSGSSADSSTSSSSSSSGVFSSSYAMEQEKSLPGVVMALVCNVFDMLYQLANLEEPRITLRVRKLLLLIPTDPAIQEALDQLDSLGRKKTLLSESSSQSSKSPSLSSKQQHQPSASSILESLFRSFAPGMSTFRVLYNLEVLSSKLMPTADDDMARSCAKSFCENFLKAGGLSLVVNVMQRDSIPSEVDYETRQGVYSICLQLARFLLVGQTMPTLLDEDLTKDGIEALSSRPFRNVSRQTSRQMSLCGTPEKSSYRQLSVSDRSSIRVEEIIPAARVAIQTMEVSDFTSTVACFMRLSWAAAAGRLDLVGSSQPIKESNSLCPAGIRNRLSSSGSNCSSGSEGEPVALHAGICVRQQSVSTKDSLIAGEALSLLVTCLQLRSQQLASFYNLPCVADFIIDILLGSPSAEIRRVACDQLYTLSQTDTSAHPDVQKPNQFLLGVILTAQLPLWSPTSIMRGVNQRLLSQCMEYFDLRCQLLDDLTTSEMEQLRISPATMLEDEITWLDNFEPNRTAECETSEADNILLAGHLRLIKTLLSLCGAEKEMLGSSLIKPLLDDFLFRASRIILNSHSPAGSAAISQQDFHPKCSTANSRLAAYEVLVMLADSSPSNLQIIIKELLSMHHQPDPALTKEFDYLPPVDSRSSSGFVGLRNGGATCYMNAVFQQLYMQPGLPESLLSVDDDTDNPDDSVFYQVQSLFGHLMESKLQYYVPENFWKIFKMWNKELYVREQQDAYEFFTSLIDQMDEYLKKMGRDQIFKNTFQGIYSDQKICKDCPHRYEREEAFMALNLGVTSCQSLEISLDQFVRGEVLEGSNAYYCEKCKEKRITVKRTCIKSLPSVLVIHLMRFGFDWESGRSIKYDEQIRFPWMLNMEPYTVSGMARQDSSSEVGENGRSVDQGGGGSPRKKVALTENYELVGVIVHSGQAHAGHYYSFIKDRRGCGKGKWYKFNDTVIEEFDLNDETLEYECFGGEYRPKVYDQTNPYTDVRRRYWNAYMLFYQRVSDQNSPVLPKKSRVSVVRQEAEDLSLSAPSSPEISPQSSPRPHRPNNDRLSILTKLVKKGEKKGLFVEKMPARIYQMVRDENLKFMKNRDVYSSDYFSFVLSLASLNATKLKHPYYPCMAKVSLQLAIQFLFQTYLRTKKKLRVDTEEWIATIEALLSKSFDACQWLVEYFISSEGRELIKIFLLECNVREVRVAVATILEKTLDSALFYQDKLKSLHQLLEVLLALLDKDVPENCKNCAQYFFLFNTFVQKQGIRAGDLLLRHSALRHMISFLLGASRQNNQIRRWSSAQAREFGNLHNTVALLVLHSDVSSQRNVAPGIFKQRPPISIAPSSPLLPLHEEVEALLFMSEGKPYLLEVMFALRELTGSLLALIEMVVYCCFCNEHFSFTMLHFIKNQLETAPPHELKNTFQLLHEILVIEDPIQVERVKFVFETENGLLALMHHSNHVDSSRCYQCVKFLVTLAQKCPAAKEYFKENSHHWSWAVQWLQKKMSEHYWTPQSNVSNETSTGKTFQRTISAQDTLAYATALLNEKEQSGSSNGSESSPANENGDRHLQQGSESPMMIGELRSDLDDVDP
UniProt P31946: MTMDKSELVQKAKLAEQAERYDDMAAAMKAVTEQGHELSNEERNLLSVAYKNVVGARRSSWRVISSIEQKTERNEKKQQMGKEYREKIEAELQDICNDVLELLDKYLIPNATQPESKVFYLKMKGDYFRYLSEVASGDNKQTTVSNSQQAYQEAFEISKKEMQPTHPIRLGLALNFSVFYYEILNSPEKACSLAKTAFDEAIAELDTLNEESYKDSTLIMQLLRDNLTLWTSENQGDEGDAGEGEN
UniProt Q13555: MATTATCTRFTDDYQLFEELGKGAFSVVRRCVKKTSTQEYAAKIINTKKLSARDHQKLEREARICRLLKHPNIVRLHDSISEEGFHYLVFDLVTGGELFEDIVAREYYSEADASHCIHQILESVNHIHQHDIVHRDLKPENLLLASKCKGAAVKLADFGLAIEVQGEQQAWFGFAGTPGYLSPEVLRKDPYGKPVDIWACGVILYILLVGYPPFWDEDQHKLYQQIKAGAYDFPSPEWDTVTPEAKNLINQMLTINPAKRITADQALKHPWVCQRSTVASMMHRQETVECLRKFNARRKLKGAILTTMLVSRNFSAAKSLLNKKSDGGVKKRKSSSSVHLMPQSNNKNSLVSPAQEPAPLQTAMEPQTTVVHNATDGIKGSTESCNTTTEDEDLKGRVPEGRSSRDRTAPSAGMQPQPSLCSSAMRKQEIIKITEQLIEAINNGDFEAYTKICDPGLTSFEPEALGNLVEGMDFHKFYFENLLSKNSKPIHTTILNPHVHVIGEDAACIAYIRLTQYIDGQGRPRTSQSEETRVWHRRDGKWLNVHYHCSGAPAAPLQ
UniProt Q9BUL8: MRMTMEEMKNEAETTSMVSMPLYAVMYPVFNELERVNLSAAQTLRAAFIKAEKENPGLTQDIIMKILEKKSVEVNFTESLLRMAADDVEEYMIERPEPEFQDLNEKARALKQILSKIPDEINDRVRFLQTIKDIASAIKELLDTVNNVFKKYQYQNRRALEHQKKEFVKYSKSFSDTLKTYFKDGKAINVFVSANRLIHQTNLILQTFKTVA
UniProt P19474: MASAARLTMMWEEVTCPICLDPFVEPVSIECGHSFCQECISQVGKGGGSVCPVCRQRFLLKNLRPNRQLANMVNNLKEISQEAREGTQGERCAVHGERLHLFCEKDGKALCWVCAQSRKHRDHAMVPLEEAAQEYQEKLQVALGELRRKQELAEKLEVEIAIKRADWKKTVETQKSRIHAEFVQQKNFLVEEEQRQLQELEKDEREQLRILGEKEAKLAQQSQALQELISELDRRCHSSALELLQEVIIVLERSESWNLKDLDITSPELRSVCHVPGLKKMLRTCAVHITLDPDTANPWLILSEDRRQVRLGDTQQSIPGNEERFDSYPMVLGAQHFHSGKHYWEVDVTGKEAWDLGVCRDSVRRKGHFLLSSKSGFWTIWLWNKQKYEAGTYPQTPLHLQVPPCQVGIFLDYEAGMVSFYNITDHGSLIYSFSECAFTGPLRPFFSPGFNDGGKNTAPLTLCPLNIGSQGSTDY

Key:
[1] = molecular target: T1, C-terminal transmembrane domain deleted V5-tagged wild-type rat TAOK2 (amino acids 1-993) (rat) (UniProt Q9JLS3); assay: affinity purification with mass spectrometry; V5-tagged rat TAOK2 variants (1-993) expressed in HEK293T cells, cells mock-treated or transfected with 5 ug/ml poly(I:C) for 4 h; lysate in TAP lysis buffer (50 mM Tris-HCl pH 7.5, 100 mM NaCl, 1.5 mM MgCl2, 0.2% NP-40, 5% glycerol, Sm DNase); anti-V5-agarose, 3 h at 4 C; LC-MS/MS, enrichment against combined control baits EGFP and PGAM5
T1 sequence: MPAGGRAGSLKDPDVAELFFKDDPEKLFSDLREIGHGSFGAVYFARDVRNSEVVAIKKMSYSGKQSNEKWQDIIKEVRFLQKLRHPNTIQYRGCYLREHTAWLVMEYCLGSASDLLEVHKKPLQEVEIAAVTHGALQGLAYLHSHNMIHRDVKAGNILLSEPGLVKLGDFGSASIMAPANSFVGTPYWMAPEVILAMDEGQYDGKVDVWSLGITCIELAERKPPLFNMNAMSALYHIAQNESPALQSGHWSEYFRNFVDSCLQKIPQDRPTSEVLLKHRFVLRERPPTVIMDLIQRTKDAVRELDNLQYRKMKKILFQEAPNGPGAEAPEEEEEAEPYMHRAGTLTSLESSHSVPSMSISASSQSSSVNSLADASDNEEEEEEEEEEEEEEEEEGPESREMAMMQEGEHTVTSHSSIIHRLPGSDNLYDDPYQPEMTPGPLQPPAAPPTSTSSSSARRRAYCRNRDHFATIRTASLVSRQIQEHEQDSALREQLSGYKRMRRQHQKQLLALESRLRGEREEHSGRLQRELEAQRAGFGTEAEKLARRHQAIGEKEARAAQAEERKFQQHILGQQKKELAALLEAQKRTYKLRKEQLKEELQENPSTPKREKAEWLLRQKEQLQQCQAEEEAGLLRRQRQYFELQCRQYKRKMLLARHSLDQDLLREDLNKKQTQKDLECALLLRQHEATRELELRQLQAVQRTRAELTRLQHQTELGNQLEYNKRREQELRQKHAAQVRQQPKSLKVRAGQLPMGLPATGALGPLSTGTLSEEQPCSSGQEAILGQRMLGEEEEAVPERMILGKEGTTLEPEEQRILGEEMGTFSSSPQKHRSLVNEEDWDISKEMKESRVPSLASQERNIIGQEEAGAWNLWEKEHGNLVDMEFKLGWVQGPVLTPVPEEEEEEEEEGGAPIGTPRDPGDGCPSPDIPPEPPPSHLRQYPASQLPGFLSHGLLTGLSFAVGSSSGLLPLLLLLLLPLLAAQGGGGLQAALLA

[2] = molecular target: T2, rat TAOK2 D151A (amino acids 1-993, V5-tagged; mutation in the active site of the kinase domain) (rat) (UniProt Q9JLS3); assay: as above
T2 sequence: T1 sequence with D151A

binding [1]: binds
Molecule: ASF1A (from UniProt Q9Y294 1-204)

binding [1]: binds
Molecule: BCLAF1 (from UniProt Q9NYF8 1-920)

binding [1]: binds
Molecule: CHD8 (from UniProt Q9HCK8 1-2581)

binding [1]: binds
Molecule: USP24 (from UniProt Q9UPU5 1-2620)

binding [1]: binds | binding [2]: binds
Molecule: YWHAB (from UniProt P31946 1-246)

binding [1]: binds
B2: BEND3 (protein, UniProt Q5T5X7 1-828)
chain: MNSTEFTEDVEEVLKSITVKVETEAEDAALDCSVNSRTSEKHSVDSVLTALQDSSKRKQLVSDGLLDSVPGVKRRRLIPEALLAGMRNRENSSPCQGNGEQAGRGRSLGNVWPGEEEPCNDATTPSYKKPLYGISHKIMEKKNPPSGDLLNVYELFEKANASNSPSSLRLLNEPQKRDCGSTGAGTDNDPNIYFLIQKMFYMLNTLTSNMSQLHSKVDLLSLEVSRIKKQVSPTEMVAKFQPPPEYQLTAAELKQIVDQSLSGGDLACRLLVQLFPELFSDVDFSRGCSACGFAAKRKLESLHLQLIRNYVEVYYPSVKDTAVWQAECLPQLNDFFSRFWAQREMEDSQPSGQVASFFEAEQVDPGHFLDNKDQEEALSLDRSSTIASDHVVDTQDLTEFLDEASSPGEFAVFLLHRLFPELFDHRKLGEQYSCYGDGGKQELDPQRLQIIRNYTEIYFPDMQEEEAWLQQCAQRINDELEGLGLDAGSEGDPPRDDCYDSSSLPDDISVVKVEDSFEGERPGRRSKKIWLVPIDFDKLEIPQPDFEVPGADCLLSKEQLRSIYESSLSIGNFASRLLVHLFPELFTHENLRKQYNCSGSLGKKQLDPSRIKLIRHYVQLLYPRAKNDRVWTLEFVGKLDERCRRRDTEQRRSYQQQRKVHVPGPECRDLTSYAINPERFREEFEGPPLPPERSSKDFCKIPLDELVVPSPDFPVPSPYLLSDKEVREIVQQSLSVGNFAARLLVRLFPELFTAENLRLQYNHSGACNKKQLDPTRLRLIRHYVEAVYPVEKMEEVWHYECIPSIDERCRRPNRKKCDILKKAKKVEK

binding [1]: binds
B4: BAG1 (protein, UniProt Q99933 1-345)
chain: MAQRGGARRPRGDRERLGSRLRALRPGREPRQSEPPAQRGPPPSGRPPARSTASGHDRPTRGAAAGARRPRMKKKTRRRSTRSEELTRSEELTLSEEATWSEEATQSEEATQGEEMNRSQEVTRDEESTRSEEVTREEMAAAGLTVTVTHSNEKHDLHVTSQQGSSEPVVQDLAQVVEEVIGVPQSFQKLIFKGKSLKEMETPLSALGIQDGCRVMLIGKKNSPQEEVELKKLKHLEKSVEKIADQLEELNKELTGIQQGFLPKDLQAEALCKLDRRVKATIEQFMKILEEIDTLILPENFKDSRLKRKGLVKKVQAFLAECDTVEQNICQETERLQSTNFALAE

Second part, the molecule before the results:

Molecule: CAMK2G (from UniProt Q13555 1-558)
binding [1]: binds | binding [2]: binds

Molecule: LRRFIP (human (endogenous in HEK293T))
binding [1]: binds

Molecule: PDCD10 (from UniProt Q9BUL8 1-212)
binding [1]: binds

Molecule: TRIM21 (from UniProt P19474 1-475)
binding [1]: binds

B1: BRAP (protein, UniProt Q7Z569 1-592)
chain: MSVSLVVIRLELAEHSPVPAGFGFSAAAGEMSDEEIKKTTLASAVACLEGKSPGEKVAIIHQHLGRREMTDVIIETMKSNPDELKTTVEERKSSEASPTAQRSKDHSKECINAAPDSPSKQLPDQISFFSGNPSVEIVHGIMHLYKTNKMTSLKEDVRRSAMLCILTVPAAMTSHDLMKFVAPFNEVIEQMKIIRDSTPNQYMVLIKFRAQADADSFYMTCNGRQFNSIEDDVCQLVYVERAEVLKSEDGASLPVMDLTELPKCTVCLERMDESVNGILTTLCNHSFHSQCLQRWDDTTCPVCRYCQTPEPVEENKCFECGVQENLWICLICGHIGCGRYVSRHAYKHFEETQHTYAMQLTNHRVWDYAGDNYVHRLVASKTDGKIVQYECEGDTCQEEKIDALQLEYSYLLTSQLESQRIYWENKIVRIEKDTAEEINNMKTKFKETIEKCDNLEHKLNDLLKEKQSVERKCTQLNTKVAKLTNELKEEQEMNKCLRANQVLLQNKLKEEERVLKETCDQKDLQITEIQEQLRDVMFYLETQQKINHLPAETRQEIQEGQINIAMASASSPASSGGSGKLPSRKGRSKRGK
binding [1]: binds

B3: WDR83 (protein, UniProt Q9BRX9 1-315)
chain: MAFPEPKPRPPELPQKRLKTLDCGQGAVRAVRFNVDGNYCLTCGSDKTLKLWNPLRGTLLRTYSGHGYEVLDAAGSFDNSSLCSGGGDKAVVLWDVASGQVVRKFRGHAGKVNTVQFNEEATVILSGSIDSSIRCWDCRSRRPEPVQTLDEARDGVSSVKVSDHEILAGSVDGRVRRYDLRMGQLFSDYVGSPITCTCFSRDGQCTLVSSLDSTLRLLDKDTGELLGEYKGHKNQEYKLDCCLSERDTHVVSCSEDGKVFFWDLVEGALALALPVGSGVVQSLAYHPTEPCLLTAMGGSVQCWREEAYEAEDGAG
binding [1]: binds | binding [2]: binds
